Data: PMC3332038
Results are given in words; binding and its absence hold for the method and conditions named. In cells and extracts the contact can be indirect.

The chains behind the UniProt entries cited, without tags or fusion partners. Residues count along the entry.
UniProt P40337: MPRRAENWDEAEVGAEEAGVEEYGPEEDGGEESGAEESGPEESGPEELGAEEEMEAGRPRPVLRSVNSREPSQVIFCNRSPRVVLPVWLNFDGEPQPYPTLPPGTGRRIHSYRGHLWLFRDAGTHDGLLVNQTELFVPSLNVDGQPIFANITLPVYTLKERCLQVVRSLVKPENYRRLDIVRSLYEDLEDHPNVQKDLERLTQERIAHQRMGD
UniProt P10909, residues 23-449: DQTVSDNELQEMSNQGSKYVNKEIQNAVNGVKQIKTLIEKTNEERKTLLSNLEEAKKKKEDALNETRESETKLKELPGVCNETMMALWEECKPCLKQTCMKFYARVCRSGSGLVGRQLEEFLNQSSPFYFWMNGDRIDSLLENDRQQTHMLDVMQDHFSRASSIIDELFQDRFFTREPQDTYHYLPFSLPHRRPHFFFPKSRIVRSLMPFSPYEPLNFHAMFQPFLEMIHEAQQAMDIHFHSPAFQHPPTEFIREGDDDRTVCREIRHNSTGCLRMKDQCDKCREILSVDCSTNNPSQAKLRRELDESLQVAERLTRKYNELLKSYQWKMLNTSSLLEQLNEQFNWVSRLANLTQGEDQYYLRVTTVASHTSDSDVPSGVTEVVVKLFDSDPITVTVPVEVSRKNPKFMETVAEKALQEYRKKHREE

Target: HA-pVHL (UniProt P40337)
Assay: co-IP; 293T cells transfected, harvested at 24 h; 500 µg of cell lysate, immunoprecipitation with HA antibody and protein A/G PLUS agarose at 4°C, immunoblotting

binding: no binding
Substance: Myc-sCLU (from UniProt P10909-1 23-449)
